The text below walks through data of paper PMC7411789.

Amino acid sequences for entries named in this document (tags omitted). Residues count along the entry.
UniProt P02769, 25-607: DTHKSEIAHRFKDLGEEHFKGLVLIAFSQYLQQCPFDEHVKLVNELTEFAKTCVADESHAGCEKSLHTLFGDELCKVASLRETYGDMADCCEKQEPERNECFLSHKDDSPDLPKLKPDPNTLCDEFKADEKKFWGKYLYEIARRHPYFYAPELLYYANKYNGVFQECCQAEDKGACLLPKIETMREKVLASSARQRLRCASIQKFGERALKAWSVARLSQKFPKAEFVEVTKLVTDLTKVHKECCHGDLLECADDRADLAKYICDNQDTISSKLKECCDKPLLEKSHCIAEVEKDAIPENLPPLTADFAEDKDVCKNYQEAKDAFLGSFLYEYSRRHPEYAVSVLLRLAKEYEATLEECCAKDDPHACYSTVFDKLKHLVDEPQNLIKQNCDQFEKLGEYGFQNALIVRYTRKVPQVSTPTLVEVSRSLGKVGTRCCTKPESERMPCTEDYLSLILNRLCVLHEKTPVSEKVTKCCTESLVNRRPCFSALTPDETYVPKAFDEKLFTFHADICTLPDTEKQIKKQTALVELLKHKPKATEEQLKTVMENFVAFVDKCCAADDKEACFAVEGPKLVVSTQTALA

One series deals with VEGF. Put plainly: antibody-aptamer sandwich plate assay, GDH activity read-out. The note with it: ZF-GDH label, BAF293 capture, TBS: 10 mM Tris-HCl, 100 mM NaCl, pH 7.0, washes with 0.05% Tween-20, block 4% skim milk, 25 °C, 1 h, commercial protein, folded or branched DNA.
A further series addresses BSA (bovine) (UniProt P02769). The description is as above. The note with it: ZF-GDH label, BAF293 capture, BSA in place of VEGF; TBS: 10 mM Tris-HCl, 100 mM NaCl, pH 7.0; washes with 0.05% Tween-20, block 4% skim milk; 25 °C, 1 h; commercial protein; folded or branched DNA.

For part of these data: A negative result means that nothing was seen under these conditions.

In the case of “GATGCGTGGGCGAGGTACCAAAAGATGATCTTGGGCCCGTCCGAATGGTGGGTGTTCTCGCCCACGCATC [2G19-Z]”, the binding result is given as “binds” with VEGF (0-100 nM VEGF) and “no binding” in the series with BSA (bovine). With “TATGCGTGGGCGACTTTTGTCGCCCACGCATATGTGGGGGTGGACGGGCCGGGTAGA [V7t1-Z]”, in the series with VEGF (100 nM VEGF), the binding result is listed as “binds”.
